{"source": "PubChem BioAssay AID652259 | Drosophila RNAi Screening Center, 2013", "test": "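Genome-wide hunt for genes that control Wingless pathway activity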 (primary screen)", "cells": "Drosophila clone 8 imaginal disc epithelial cells", "reagent": "long dsRNA against Drosophila genes", "treatment": "pathway stimulated by co-transfected Wingless expression plasmid", "detection": "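Dual luciferase reads per well after Wingless plasmid stimulation: reporter firefly light and Renilla control light; activity is firefly divided by Renilla, a ratio not deposited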", "direction": "firefly reporter light: higher = more Wg reporter light, before normalisation; Renilla control light: higher = more transfected or surviving cells", "active means": "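a knock-down is a candidate when at least two out of four statistical tests show it departing from its plate mean; one test alone signals a weak candidate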", "meaning of the calls": "active = candidate regulator (raises or lowers reporter); inactive = not a candidate", "note": "In all, the deposit lists about 22,000 reagents; shown is a random part of those with a known target gene and a result. Of all reagents, 233 (1.1%) were called active. 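Light values are raw, unnormalised plate reads; the ratio scores behind the reporter calls were not deposited.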 Names joined by + are all predicted targets of the reagent. Not stated in the record: the amount of reagent, the time to read-out, the dose of the treatment."}
{"gene knocked down": "Mlc2 (GeneID 43587)", "DRSC id": "DRSC16741", "firefly reporter light, replicate 1": 2982, "firefly reporter light, replicate 2": 8172, "Renilla control light, replicate 1": 1340, "Renilla control light, replicate 2": 2388, "Outcome": "inactive"}
{"gene knocked down": "Acsx1L (GeneID 42351)", "DRSC id": "DRSC16014", "firefly reporter light, replicate 1": 20710, "Renilla control light, replicate 1": 2560, "Outcome": "inactive"}
{"gene knocked down": "CG8952 (GeneID 32525)", "DRSC id": "DRSC20133", "firefly reporter light, replicate 1": 2497, "firefly reporter light, replicate 2": 6076, "Renilla control light, replicate 1": 880, "Renilla control light, replicate 2": 2336, "Outcome": "inactive"}
{"gene knocked down": "CG7860 (GeneID 32488)", "DRSC id": "DRSC20060", "firefly reporter light, replicate 1": 2112, "firefly reporter light, replicate 2": 5789, "Renilla control light, replicate 1": 873, "Renilla control light, replicate 2": 2176, "Outcome": "inactive"}
{"gene knocked down": "CG30432 (GeneID 246611)", "DRSC id": "DRSC04833", "firefly reporter light, replicate 1": 20304, "Renilla control light, replicate 1": 8864, "Outcome": "inactive"}
{"gene knocked down": "CG14454 (GeneID 40482)", "DRSC id": "DRSC11711", "firefly reporter light, replicate 1": 19904, "Renilla control light, replicate 1": 3453, "Outcome": "inactive"}
{"gene knocked down": "Vta1 (GeneID 38204)", "DRSC id": "DRSC08604", "firefly reporter light, replicate 1": 8928, "Renilla control light, replicate 1": 3707, "Outcome": "inactive"}
{"gene knocked down": "Vta1 (GeneID 38204)", "DRSC id": "DRSC22848", "firefly reporter light, replicate 1": 6.47e5, "firefly reporter light, replicate 2": 5.76e5, "Renilla control light, replicate 1": 2.61e5, "Renilla control light, replicate 2": 2.55e5, "Outcome": "inactive"}
{"gene knocked down": "Cluap1 (GeneID 33142)", "DRSC id": "DRSC20637", "firefly reporter light, replicate 1": 17366, "firefly reporter light, replicate 2": 6.57e5, "Renilla control light, replicate 1": 11816, "Renilla control light, replicate 2": 2.67e5, "Outcome": "inactive"}
{"gene knocked down": "Taf4 (GeneID 39765)", "DRSC id": "DRSC11297", "reporter change call, replicate 1": "Wg reporter activity raised", "firefly reporter light, replicate 1": 19981, "Renilla control light, replicate 1": 864, "Outcome": "active"}
{"gene knocked down": "CG14330 (GeneID 42102)", "DRSC id": "DRSC14809", "firefly reporter light, replicate 1": 25574, "Renilla control light, replicate 1": 4720, "Outcome": "inactive"}
{"gene knocked down": "CG1213 (GeneID 40728)", "DRSC id": "DRSC12191", "firefly reporter light, replicate 1": 13524, "Renilla control light, replicate 1": 2029, "Outcome": "inactive"}
{"gene knocked down": "CG34430 (GeneID 5740489)", "DRSC id": "DRSC06499", "firefly reporter light, replicate 1": 2714, "firefly reporter light, replicate 2": 10268, "Renilla control light, replicate 1": 669, "Renilla control light, replicate 2": 3041, "Outcome": "inactive"}
{"gene knocked down": "CG3078 (GeneID 31211)", "DRSC id": "DRSC18531", "firefly reporter light, replicate 1": 2503, "firefly reporter light, replicate 2": 3147, "Renilla control light, replicate 1": 1099, "Renilla control light, replicate 2": 1376, "Outcome": "inactive"}
{"gene knocked down": "VhaPPA1-1 (GeneID 45247)", "DRSC id": "DRSC16170", "firefly reporter light, replicate 1": 7450, "Renilla control light, replicate 1": 2694, "Outcome": "inactive"}
{"gene knocked down": "Oseg4 (GeneID 38219)", "DRSC id": "DRSC08548", "firefly reporter light, replicate 1": 12744, "Renilla control light, replicate 1": 3504, "Outcome": "inactive"}
{"gene knocked down": "Ttc19 (GeneID 35172)", "DRSC id": "DRSC02474", "firefly reporter light, replicate 1": 1877, "firefly reporter light, replicate 2": 4624, "Renilla control light, replicate 1": 547, "Renilla control light, replicate 2": 2001, "Outcome": "inactive"}
{"gene knocked down": "CG31827 + CG18478", "DRSC id": "DRSC01958", "firefly reporter light, replicate 1": 3514, "firefly reporter light, replicate 2": 6205, "Renilla control light, replicate 1": 1093, "Renilla control light, replicate 2": 2643, "Outcome": "inactive"}
{"gene knocked down": "dally (GeneID 39013)", "DRSC id": "DRSC08954", "firefly reporter light, replicate 1": 3257, "Renilla control light, replicate 1": 1498, "Outcome": "inactive"}
{"gene knocked down": "dally (GeneID 39013)", "DRSC id": "DRSC11338", "firefly reporter light, replicate 1": 2609, "Renilla control light, replicate 1": 1288, "Outcome": "inactive"}
{"gene knocked down": "lncRNA:CR31386 (GeneID 12797885)", "DRSC id": "DRSC22769", "firefly reporter light, replicate 1": 6.73e5, "firefly reporter light, replicate 2": 7.10e5, "Renilla control light, replicate 1": 2.36e5, "Renilla control light, replicate 2": 1.89e5, "Outcome": "inactive"}
{"gene knocked down": "lncRNA:bxd (GeneID 3772220)", "DRSC id": "DRSC13176", "firefly reporter light, replicate 1": 4760, "Renilla control light, replicate 1": 2023, "Outcome": "inactive"}
{"gene knocked down": "CG14160 (GeneID 39177)", "DRSC id": "DRSC10161", "firefly reporter light, replicate 1": 6619, "Renilla control light, replicate 1": 3031, "Outcome": "inactive"}
{"gene knocked down": "CG8993 (GeneID 38301)", "DRSC id": "DRSC08616", "firefly reporter light, replicate 1": 3248, "Renilla control light, replicate 1": 2192, "Outcome": "inactive"}
{"gene knocked down": "sl (GeneID 32601)", "DRSC id": "DRSC20377", "firefly reporter light, replicate 1": 1424, "firefly reporter light, replicate 2": 4506, "Renilla control light, replicate 1": 754, "Renilla control light, replicate 2": 1846, "Outcome": "inactive"}
{"gene knocked down": "sl (GeneID 32601)", "DRSC id": "DRSC21782", "firefly reporter light, replicate 1": 2.37e5, "firefly reporter light, replicate 2": 2.71e5, "Renilla control light, replicate 1": 1.25e5, "Renilla control light, replicate 2": 1.24e5, "Outcome": "inactive"}
{"gene knocked down": "CG8343 (GeneID 35544)", "DRSC id": "DRSC04905", "firefly reporter light, replicate 1": 11840, "Renilla control light, replicate 1": 3457, "Outcome": "inactive"}
{"gene knocked down": "CG9259 (GeneID 35372)", "DRSC id": "DRSC03174", "firefly reporter light, replicate 1": 2343, "firefly reporter light, replicate 2": 4981, "Renilla control light, replicate 1": 662, "Renilla control light, replicate 2": 2118, "Outcome": "inactive"}
{"gene knocked down": "Polr2G (GeneID 261631)", "DRSC id": "DRSC16068", "firefly reporter light, replicate 1": 10955, "Renilla control light, replicate 1": 1805, "Outcome": "inactive"}
{"gene knocked down": "cni (GeneID 34967)", "DRSC id": "DRSC03512", "firefly reporter light, replicate 1": 5024, "firefly reporter light, replicate 2": 8019, "Renilla control light, replicate 1": 1859, "Renilla control light, replicate 2": 4713, "Outcome": "inactive"}
{"gene knocked down": "RnrS (GeneID 36280)", "DRSC id": "DRSC07533", "firefly reporter light, replicate 1": 7686, "Renilla control light, replicate 1": 2499, "Outcome": "inactive"}
{"gene knocked down": "CG43057 (GeneID 12798305)", "DRSC id": "DRSC01015", "firefly reporter light, replicate 1": 22825, "Renilla control light, replicate 1": 8757, "Outcome": "inactive"}

Records listed above with an active call (1):
{"gene knocked down": "Taf4 (GeneID 39765)", "DRSC id": "DRSC11297", "reporter change call, replicate 1": "Wg reporter activity raised", "firefly reporter light, replicate 1": 19981, "Renilla control light, replicate 1": 864, "Outcome": "active"}
